Measurements reported in PubChem BioAssay AID1224826 (NIAID, 2016).
The deposit covers about 17,000 reagents; shown is an unselected part. About 1,110 of them (6.6%) count as active. 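Active means lowered or raised reporter signal; replicate intensities are raw and not normalised per plate.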 Unmarked entries are inactive. Not all columns of the deposit are shown. Reagent sequences are not shown.

Assay: 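Genes that change LPS-induced Tnf promoter activity in mouse macrophages when knocked down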 (primary screen)
System: RAW264.7 G9 macrophages from mouse bearing reporters for p65 (GFP) and the Tnf promoter (mCherry)
Reagents: siRNA pool against mouse genes, 100 nM
Duration: 16 h of LPS stimulation, after 2 days of siRNA transfection
Challenge: bacterial lipopolysaccharide (Salmonella minnesota R595), 10 ng/ml
Detection: 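Imaged Tnf reporter mCherry in nuclei, minus background, normalised per plate to the median and expressed as robust z-scores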
Scale: Tnf reporter robust z-score: higher = stronger Tnf promoter reporter signal after LPS
Active means: 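a well counts as active at a score of -1.3 or below (Tlr4 knock-down control median) or above 3 (raised signal); controls and wells holding fewer than 50 cells are excluded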
Meaning of the calls: active = Tnf reporter clearly lowered or raised; inactive = no clear change in Tnf reporter

Silencing of Sec62 came out at: fewer than 50 cells in well fewer than 50 cells per well; well left out of calls.
Nwd1 gave Tnf reporter robust z-score -0.31; fewer than 50 cells in well enough cells in well.
For Or7g34, the values are Tnf reporter robust z-score 1.73; fewer than 50 cells in well enough cells in well.
Eif2ak1 scored Tnf reporter robust z-score -0.16; fewer than 50 cells in well enough cells in well.
Knock-down of Osbpl6 gave: Tnf reporter robust z-score -0.26; fewer than 50 cells in well enough cells in well.
Rspo4 scored Tnf reporter robust z-score 0.33; fewer than 50 cells in well enough cells in well.
Vmn2r-ps54 gave Tnf reporter robust z-score -0.68; fewer than 50 cells in well enough cells in well.
Depletion of Retnlb resulted in: Tnf reporter robust z-score 1.09; fewer than 50 cells in well enough cells in well.
Pirt scored Tnf reporter robust z-score 2.4; fewer than 50 cells in well enough cells in well.
After knock-down of Brcc3 the results were fewer than 50 cells in well fewer than 50 cells per well; well left out of calls.
Silencing of Pcdhb9 came out at: Tnf reporter robust z-score 1.59; fewer than 50 cells in well enough cells in well.
After knock-down of Snai1, the screen gave Tnf reporter robust z-score -0.42; fewer than 50 cells in well enough cells in well.
For Dtnbp1, the entry reads Tnf reporter robust z-score -0.33; fewer than 50 cells in well enough cells in well.
After knock-down of Zfp324, the record shows Tnf reporter robust z-score -0.13; fewer than 50 cells in well enough cells in well.
Knock-down of Orc2 gave: Tnf reporter robust z-score 1.46; fewer than 50 cells in well enough cells in well.
Silencing of Nrip1 resulted in: Tnf reporter robust z-score -0.33; fewer than 50 cells in well enough cells in well.
For Sntb1, the entry reads Tnf reporter robust z-score 1.17; fewer than 50 cells in well enough cells in well.
Gm6740 showed Tnf reporter robust z-score -0.84; fewer than 50 cells in well enough cells in well.
Knock-down of Gstm6 came out at: Tnf reporter robust z-score -0.26; fewer than 50 cells in well enough cells in well.
Against Or10ak11 the deposit lists Tnf reporter robust z-score 1.21; fewer than 50 cells in well enough cells in well.
Areg scored Tnf reporter robust z-score -0.56; fewer than 50 cells in well enough cells in well.

Ordered by “Tnf reporter robust z-score” (lowest first): some entries from above
Vmn2r-ps54 — Tnf reporter robust z-score = -0.68; fewer than 50 cells in well = enough cells in well
Retnlb — Tnf reporter robust z-score = 1.09; fewer than 50 cells in well = enough cells in well
